# Screening data, single-dose tests

A: 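Growth of Mycobacterium tuberculosis over 3 days (7H9 medium with glucose and tyloxapol); the read-out is not stated. Compounds at 500 µM. The record gives no direction; compounds that gave an IC50 in retests scored well above the rest, so higher reads as more growth inhibition. Of about 18,000 compounds tested this way, about 1,400 (7.9%) reached 50% or more in at least one test.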
B: 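Growth of Mycobacterium tuberculosis over 4 days (cholesterol / DPPC medium with tyloxapol); the read-out is not stated. Concentration: 500 µM. Direction is inferred from retests: higher values go with more growth inhibition. Size under these conditions: about 18,000 compounds, about 900 of them at 50% or above in at least one test.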

Each number is a percent effect as filed.
How 0% and 100% were set is not recorded. Most values in the screen are low, and negative values occur.
Compounds were drawn at random from those tested, without regard to their results.

- O=S(=O)(CCNCc1cc[nH]c1)N1CCSCC1 : A: 14.33%; B: 27.12%
- CCOc1ccc(NC(=O)CNC)cc1OCC : A: 18.51%; B: 0.5949%
- Cc1cc(C)c(CN2CCOC(CN)C2)cc1C (stereo unspecified) : A: 79.41%; B: 77.75%
- Cc1cc(=O)n2nccc2[nH]1 : A: -5.393%; B: -7.83%
- CC(NC(=O)c1ccoc1)C(=O)Nc1nccs1 (stereo unspecified) : A: -12.91%; B: -11.02%
- CC(C)(C)CCC(N)c1ncc[nH]1 (stereo unspecified) : A: 21.74%; B: 11.83%
- NS(=O)(=O)NCC1CCN(c2cccc(Br)c2)C1 (stereo unspecified) : A: 75.79%; B: 49.77%
- CC(CN)N(C)C(=O)c1ccc(Br)cc1 (stereo unspecified) : A: 16.47%; B: 5.659%
- NCc1ccc(OC2CCCCC2)nc1 : A: 52.36%; B: 41.54%
- CCOCCC(=O)N1CCN(c2ccc(F)cc2)CC1 : A: 74.51%; B: 70.18%
- CC(CNc1ccccc1)NC(=O)c1ccncc1F (stereo unspecified) : A: -2.451%; B: -3.548%
- Cc1ccnc(OC2CCNCC2)c1 : A: 20.99%; B: 1.637%
- CCc1nnsc1C(=O)N1CCN(c2nccs2)CC1 : A: -3.64%; B: -0.398%
- CC(C)c1ccc(NC(=O)COCC(=O)N(C)C)cc1 : A: 42.96%; B: 36.52%
- NCC1CCCSC1 (stereo unspecified) : A: 6.05%; B: -0.9419%
- COCc1ccccc1CNS(=O)(=O)N1CCOCC1 : A: 30.45%; B: -10.51%
- Cc1cccc2nc(CN3CCOCC3)cn12 : A: -13.78%; B: -15.43%
- CC(C)c1ccc2c(c1)C(N)C(=O)N2 (stereo unspecified) : A: 87.47%; B: 50.54%
- O[C@@H]1CCC[C@H]1n1cccn1 : A: 8.484%; B: 2.076%
- CN(Cc1ccc(F)cc1Cl)C(=O)C1(N)CCCC1 : A: 7.954%; B: -9.241%
- O=C1Nc2ccccc2NC12CCN(CC1CC1)CC2 : A: 14.12%; B: 29.69%
- CCCC1SCCN1C(=O)c1c[nH]c(=O)cc1C (stereo unspecified) : A: 0.9593%; B: -0.2783%
- NC(=O)C1CCN(CCOc2ccc(Br)cc2)C1 (stereo unspecified) : A: 58.52%; B: 45.78%
- CC(C)c1cc(C(=O)N(C)C(C)c2ccon2)on1 (stereo unspecified) : A: 59.56%; B: 66.44%
- NC(=O)CCNC(=O)CCOc1ccccc1 : A: -2.459%; B: -13.61%
- Nc1nc(CCCNC(=O)C2CCCO2)cs1 (stereo unspecified) : A: 24.52%; B: -10.97%
- CC(CN)N(C)C(=O)Cc1ccc(F)cc1F (stereo unspecified) : A: 5.562%; B: -3.593%
- CCC(C)(C#N)NC(=O)c1ccc(C)nc1 (stereo unspecified) : A: 4.887%; B: 7.035%
- CN(Cc1cccs1)C(N)=O : A: -6.769%; B: -17.92%

Repeated from the top, 2 entries:

| SMILES | A | B |
|---|---|---|
| `O=S(=O)(CCNCc1cc[nH]c1)N1CCSCC1` | 14.33% | 27.12% |
| `CCOc1ccc(NC(=O)CNC)cc1OCC` | 18.51% | 0.5949% |

Source: ChEMBL document CHEMBL3988442, “University of Dundee, Small-Polar-MMV Screening Library” (2021).